In publication PMC11167044 one finds binding data, which are given here for four substances.

Sequences of proteins named here, by UniProt entry; tags and fusion partners are left off.
UniProt P14618: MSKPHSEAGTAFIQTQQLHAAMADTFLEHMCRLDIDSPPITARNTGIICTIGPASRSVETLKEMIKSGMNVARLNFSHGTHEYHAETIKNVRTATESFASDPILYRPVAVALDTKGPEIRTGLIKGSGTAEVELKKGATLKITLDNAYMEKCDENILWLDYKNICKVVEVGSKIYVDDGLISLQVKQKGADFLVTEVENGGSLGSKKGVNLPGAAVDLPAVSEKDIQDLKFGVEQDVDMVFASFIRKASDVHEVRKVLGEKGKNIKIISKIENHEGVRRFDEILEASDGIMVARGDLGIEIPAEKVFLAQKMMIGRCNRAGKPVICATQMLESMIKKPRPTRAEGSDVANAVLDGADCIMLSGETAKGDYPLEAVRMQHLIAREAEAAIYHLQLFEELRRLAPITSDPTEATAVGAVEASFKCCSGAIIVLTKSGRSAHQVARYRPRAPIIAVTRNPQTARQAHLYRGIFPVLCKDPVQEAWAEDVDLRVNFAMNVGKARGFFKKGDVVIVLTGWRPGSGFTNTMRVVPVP
UniProt P99999: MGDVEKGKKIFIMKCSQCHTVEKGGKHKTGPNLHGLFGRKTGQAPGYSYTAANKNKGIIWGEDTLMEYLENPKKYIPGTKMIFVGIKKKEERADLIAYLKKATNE
UniProt P49841: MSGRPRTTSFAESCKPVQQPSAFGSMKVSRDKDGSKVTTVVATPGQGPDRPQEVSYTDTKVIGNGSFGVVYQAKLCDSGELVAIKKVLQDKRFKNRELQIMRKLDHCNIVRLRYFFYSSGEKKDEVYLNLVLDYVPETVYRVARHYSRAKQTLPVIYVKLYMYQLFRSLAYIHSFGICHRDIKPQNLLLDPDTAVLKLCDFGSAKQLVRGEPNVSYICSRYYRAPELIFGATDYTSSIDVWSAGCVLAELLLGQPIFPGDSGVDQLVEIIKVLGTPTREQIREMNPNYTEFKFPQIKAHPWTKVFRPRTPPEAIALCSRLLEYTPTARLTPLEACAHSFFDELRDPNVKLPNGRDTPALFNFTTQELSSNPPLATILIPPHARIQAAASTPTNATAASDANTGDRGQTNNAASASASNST

These are yes or no findings as the source states them, for the method shown. In cells and extracts the contact can be indirect. Some entries that bind do so weakly or less than the wild type. For part of these data: Where a sequence is shown, tags or fusion partners need not be part of it.

In test [1] the target is T1, MYG1 stably overexpressed in SW480 cells (human) (UniProt Q9HB07).
T1 sequence: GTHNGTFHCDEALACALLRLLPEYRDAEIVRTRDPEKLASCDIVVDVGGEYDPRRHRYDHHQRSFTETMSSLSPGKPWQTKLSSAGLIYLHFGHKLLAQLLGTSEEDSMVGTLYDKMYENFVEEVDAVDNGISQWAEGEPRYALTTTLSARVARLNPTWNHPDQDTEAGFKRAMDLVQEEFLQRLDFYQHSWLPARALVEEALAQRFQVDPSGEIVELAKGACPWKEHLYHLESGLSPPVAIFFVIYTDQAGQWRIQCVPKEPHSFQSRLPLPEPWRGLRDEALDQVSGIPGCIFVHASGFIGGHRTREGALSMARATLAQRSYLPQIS
As to the kind of experiment: co-IP; whole-cell lysates; antibody on Protein A/G magnetic beads, incubated with lysate 8 to 12 h at 4 °C; lysis buffer 25 mM Tris-HCl pH 7.4, 150 mM NaCl, 1 mM EDTA, 1% NP-40, 5% glycerol; western blot; 293T, HCT116 and LoVo with or without EGF (100 ng/mL, 10 h); SW480 stably overexpressing MYG1.

The target in test [2] is T1, MYG1 stably overexpressed in SW480 cells (human). Description: co-IP; SW480 cells stably overexpressing MYG1; immunoprecipitation from cytoplasm (Cyto) and mitochondria (Mito).
The target in test [3] is PKM2 in 293T and HCT116 cells (human) (UniProt P14618). Description: co-IP; whole-cell lysates; antibody on Protein A/G magnetic beads, incubated with lysate 8 to 12 h at 4 °C; lysis buffer 25 mM Tris-HCl pH 7.4, 150 mM NaCl, 1 mM EDTA, 1% NP-40, 5% glycerol; western blot; 293T, HCT116 and LoVo with or without EGF (100 ng/mL, 10 h); SW480 stably overexpressing MYG1.
The target in test [4] is PKM2 in LoVo cells (human (LoVo cells)) (UniProt P14618). The description is as above.
Test [5] has as its target T2, C-terminally Flag-tagged human MYG1 (full length) (human) (UniProt Q9HB07).
T2 sequence: T1 sequence
The description is as above.

The target in test [6] is T3, MYG1 in LoVo cells (human (LoVo cells)) (UniProt Q9HB07).
T3 sequence: T1 sequence
The description is as above.

Test [7] concerns the target T2, C-terminally Flag-tagged human MYG1 (full length) (human). As to the kind of experiment: co-IP; 293T cells treated with EGF (100 ng/mL, 10 h), fractioned into cytosol and nucleus, then immunoprecipitation.

In the case of Cyt c (from UniProt P99999 1-105), the binding entry in test [1] and in test [2] was “binds” each time.
Consider “GSK3β (from UniProt P49841 1-420) (enzyme)”, for which the binding entry in test [3], in test [4], in test [5] and in test [6] was “binds” each time.
As to “PKM2 in 293T and HCT116 cells (from UniProt P14618 1-531) (enzyme)”, the binding entry in test [5] and in test [7] was “binds” in each case.
On to “PKM2 in LoVo cells (from UniProt P14618 1-531) (enzyme)”, for which, in test [6], the binding entry is on record as “binds”.
